Test results as given in the supplement of paper PMC6078165.

Test system: MDAMB436
Experiment: relative JC-1 red fluorescence (viability) vs pre-drug, coculture with fibroblast (fraction); higher = more viable cancer cells
Method: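 JC-1 labelled TNBC cells cocultured 1:1 (1,500 cells each) with CellTrace Violet stained primary or stromal fibroblasts in 384-well plates in FluoroBrite medium, treated with one of 42 anticancer drugs at 0.1, 1, 10 or 100 uM. JC-1 red fluorescence (mitochondrial integrity in cancer cells only) was read by plate reader every 8 h for 72 h. Values are normalised to each well's pre-drug value. The stock of one drug was tenfold lower, so its dose labels may be too high.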

CC(C)C[C@H](NC(=O)[C@H](Cc1ccccc1)NC(=O)c1cnccn1)B(O)O [Bortezomib]
relative JC-1 red fluorescence
Details | 8 h | 16 h | 24 h | 32 h | 40 h | 48 h | 56 h | 64 h | 72 h
0.1 µM, coculture fibroblast: C12385 | 0.827 | 0.8087 | 0.8445 | 0.806 | 0.805 | 0.834 | 0.8726 | 0.911 | 0.9498
0.1 µM, coculture fibroblast: H6013 | 0.871 | 0.889 | 0.934 | 0.815 | 0.848 | 0.844 | 0.798 | 0.858 | 0.781
0.1 µM, coculture fibroblast: H6019 | 0.776 | 0.735 | 0.764 | 0.755 | 0.781 | 0.841 | 0.892 | 0.8557 | 0.847
0.1 µM, coculture fibroblast: H6076 | 0.76 | 0.735 | 0.78 | 0.793 | 0.887 | 0.942 | 0.822 | 0.816 | 0.877
0.1 µM, coculture fibroblast: H6231 | 0.7539 | 0.747 | 0.851 | 0.803 | 0.862 | 0.728 | 0.776 | 0.795 | 0.858
0.1 µM, coculture fibroblast: HADF | 0.814 | 0.794 | 0.787 | 0.768 | 0.778 | 0.832 | 0.792 | 0.807 | 0.796
0.1 µM, coculture fibroblast: HCFa | 0.823 | 0.811 | 0.831 | 0.842 | 0.769 | 0.826 | 0.885 | 0.82 | 0.8378
0.1 µM, coculture fibroblast: HCPF | 0.7447 | 0.7438 | 0.808 | 0.7913 | 0.849 | 0.864 | 0.929 | 0.95 | 0.865
0.1 µM, coculture fibroblast: HHSteC | 0.84 | 0.858 | 0.871 | 0.859 | 0.905 | 0.792 | 0.817 | 0.825 | 0.844
0.1 µM, coculture fibroblast: HMF | 0.7423 | 0.732 | 0.7661 | 0.7506 | 0.815 | 0.833 | 0.838 | 0.8 | 0.913
0.1 µM, coculture fibroblast: HPFa | 0.8931 | 0.917 | 0.924 | 0.933 | 0.98879 | 0.878 | 0.841 | 0.796 | 0.842
0.1 µM, coculture fibroblast: HUF | 0.8547 | 0.7907 | 0.7861 | 0.735 | 0.718 | 0.74 | 0.751 | 0.771 | 0.784
0.1 µM, coculture fibroblast: Hs5 | 0.752 | 0.764 | 0.81 | 0.797 | 0.858 | 0.866 | 0.803 | 0.885 | 0.936
0.1 µM, coculture fibroblast: Hs27A | 0.809 | 0.803 | 0.84 | 0.882 | 0.924 | 0.8 | 0.931 | 0.847 | 0.913
0.1 µM, coculture fibroblast: Hs343T | 0.754 | 0.735 | 0.767 | 0.751 | 0.801 | 0.826 | 0.902 | 0.86 | 0.891
0.1 µM, coculture fibroblast: WS1 | 0.803 | 0.749 | 0.767 | 0.712 | 0.72 | 0.745 | 0.785 | 0.822 | 0.857
1 µM, coculture fibroblast: C12385 | 0.811 | 0.7253 | 0.667 | 0.587 | 0.538 | 0.51 | 0.505 | 0.5 | 0.511
1 µM, coculture fibroblast: H6013 | 0.8575 | 0.813 | 0.794 | 0.823 | 0.845 | 0.902 | 0.919 | 0.933 | 0.918
1 µM, coculture fibroblast: H6019 | 0.7638 | 0.699 | 0.732 | 0.724 | 0.726 | 0.756 | 0.779 | 0.797 | 0.8
1 µM, coculture fibroblast: H6076 | 0.829 | 0.767 | 0.824 | 0.827 | 0.7107 | 0.839 | 0.8 | 0.827 | 0.846
1 µM, coculture fibroblast: H6231 | 0.799 | 0.736 | 0.722 | 0.663 | 0.663 | 0.654 | 0.657 | 0.642 | 0.638
1 µM, coculture fibroblast: HADF | 0.788 | 0.724 | 0.678 | 0.648 | 0.632 | 0.641 | 0.605 | 0.604 | 0.572
1 µM, coculture fibroblast: HCFa | 0.827 | 0.779 | 0.777 | 0.798 | 0.828 | 0.748 | 0.847 | 0.861 | 0.799
1 µM, coculture fibroblast: HCPF | 0.8 | 0.746 | 0.733 | 0.7 | 0.701 | 0.6827 | 0.683 | 0.675 | 0.664
1 µM, coculture fibroblast: HHSteC | 0.851 | 0.787 | 0.7772 | 0.7481 | 0.733 | 0.744 | 0.697 | 0.686 | 0.643
1 µM, coculture fibroblast: HMF | 0.781 | 0.6928 | 0.671 | 0.644 | 0.652 | 0.631 | 0.651 | 0.648 | 0.655
1 µM, coculture fibroblast: HPFa | 0.865 | 0.785 | 0.768 | 0.752 | 0.76 | 0.805 | 0.756 | 0.761 | 0.72
1 µM, coculture fibroblast: HUF | 0.8323 | 0.7252 | 0.691 | 0.62 | 0.575 | 0.544 | 0.531 | 0.521 | 0.519
1 µM, coculture fibroblast: Hs5 | 0.809 | 0.7385 | 0.734 | 0.688 | 0.673 | 0.634 | 0.661 | 0.6448 | 0.6546
1 µM, coculture fibroblast: Hs27A | 0.7982 | 0.7437 | 0.715 | 0.731 | 0.719 | 0.713 | 0.684 | 0.667 | 0.602
1 µM, coculture fibroblast: Hs343T | 0.767 | 0.679 | 0.668 | 0.645 | 0.641 | 0.6314 | 0.637 | 0.643 | 0.654
1 µM, coculture fibroblast: WS1 | 0.81 | 0.698 | 0.645 | 0.569 | 0.529 | 0.506 | 0.493 | 0.484 | 0.497

Values are relative to the signal before dosing, not to a vehicle control; the signal also falls without drug.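 Fibroblast labels name human fibroblasts: mostly primary ones from tissues such as uterus (C12385, HUF), lung (H6013), bone (Hs27A), adrenal (HADF) and skin (WS1), plus mammary HMF and breast cancer-associated Hs343T. The cancer cells are basal-like or mesenchymal-like triple-negative breast cancer lines. The paper calls a changed response a hit when it shifts by more than 3x the replicate standard deviation. The tissue of the other fibroblasts is not given here.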
